The supplement of paper PMC10331698
± gives the standard deviation of the averaged measurements. Most entries show no effect beyond the scatter of the controls.

Legend:
Experiment in all cases: level (log10 ratio to DMSO vehicle control); higher = higher biomarker level / cell amount than vehicle control
[1] = compound: C=CC(=O)OCC(F)(F)C(F)(F)C(F)(F)C(F)(F)C(F)(F)C(F)(F)C(F)(F)C(F)F [1H,1H,9H-Perfluorononyl acrylate]; details: 2200 nM; in DMSO
Method: (§1)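 BioMAP Diversity Plus panel of 12 human primary cell co-culture systems (3C, 4H, LPS, SAg, BT, BF4T, BE3C, CASM3C, HDF3CGF, KF3CT, MyoF, Mphg). Compounds were added 1 h before stimulation and left for 24 h (MyoF 48 h; BT 72 h for soluble read-outs or 6 d for IgG). Biomarkers were read by ELISA, cytotoxicity by SRB, PBMC viability and proliferation by Alamar Blue. Each well value was divided by the mean of 8 DMSO control wells on the same plate and log10 transformed; duplicate blinded samples were tested at 4 concentrations.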

[2] = compound: O=C(O)CCC(F)(C(F)(F)F)C(F)(F)F [4,4-bis(Trifluoromethyl)-4-fluoropropanoic acid]; details: 2200 nM; in DMSO
Method: as §1

[3] = compound: O=C(CC(=O)C(F)(F)C(F)(F)C(F)(F)F)c1cccs1 [(Perfluorobutyryl)-2-thenoylmethane]; details: 2200 nM; in DMSO
Method: as §1

[4] = compound: O=C(O)C(F)(F)C(F)(F)C(F)(F)C(F)(F)C(F)(F)C(F)(F)C(F)(F)F [Ammonium perfluorooctanoate]; details: 2200 nM; in DMSO
Method: as §1

[5] = compound: OCC(F)(F)OC(F)(F)C(F)(F)OC(F)(F)C(F)(F)OC(F)(F)CO [1H,1H,11H,11H-Perfluorotetraethylene glycol]; details: 2200 nM; in DMSO
Method: as §1

Perfluorooctanoic acid = compound: O=C(O)C(F)(F)C(F)(F)C(F)(F)C(F)(F)C(F)(F)C(F)(F)C(F)(F)F [Perfluorooctanoic acid]; details: 2200 nM; in DMSO
Method: as §1

Perfluorooctanamidine = compound: N=C(N)C(F)(F)C(F)(F)C(F)(F)C(F)(F)C(F)(F)C(F)(F)C(F)(F)F [Perfluorooctanamidine]; details: in DMSO
Method: as §1

[6] = compound: O=C(O)C(F)(F)OC(F)(F)C(F)(F)OC(F)(F)F [Perfluoro-3,6-dioxaheptanoic acid]; details: 2200 nM; in DMSO
Method: as §1

[7] = compound: OCC(F)(F)C(F)(F)C(F)(F)C(F)(F)C(F)(F)C(F)(F)C(F)(F)C(F)(F)CO [1H,1H,10H,10H-Perfluorodecane-1,10-diol]; details: 2200 nM; in DMSO
Method: as §1

[8] = compound: FC(F)(F)C(F)(F)C(F)(F)C(F)(F)C(F)(F)C(F)(F)C(F)(F)C(F)(F)CCS [2-(Perfluorooctyl)ethanthiol]; details: in DMSO
Method: as §1

[9] = compound: O=C(O)C(F)(F)OC(F)(F)C(F)(F)OC(F)(F)C(F)(F)OC(F)(F)C(F)(F)C(F)(F)C(F)(F)F [Perfluoro-3,6,9-trioxatridecanoic acid]; details: 2200 nM; in DMSO
Method: as §1

[10] = compound: CCOC(=O)CC(=O)C(F)(F)C(F)(F)F [Ethyl pentafluoropropionyl acetate]; details: 2200 nM; in DMSO
Method: as §1

Perfluorononanoic acid = compound: O=C(O)C(F)(F)C(F)(F)C(F)(F)C(F)(F)C(F)(F)C(F)(F)C(F)(F)C(F)(F)F [Perfluorononanoic acid]; details: 2200 nM; in DMSO
Method: as §1

Perfluorodecanoic acid = compound: O=C(O)C(F)(F)C(F)(F)C(F)(F)C(F)(F)C(F)(F)C(F)(F)C(F)(F)C(F)(F)C(F)(F)F [Perfluorodecanoic acid]; details: in DMSO
Method: as §1

Row | Test System | level (log10) [1] | level (log10) [2] | level (log10) [3] | level (log10) [4] | level (log10) [5] | level (log10) (Perfluorooctanoic acid) | level (log10) (Perfluorooctanamidine; 2200 nM) | level (log10) (Perfluorooctanamidine; 6700 nM) | level (log10) (Perfluorooctanamidine; 20000 nM) | level (log10) (Perfluorooctanamidine; 60000 nM) | level (log10) [6] | level (log10) [7] | level (log10) ([8]; 740 nM) | level (log10) ([8]; 2200 nM) | level (log10) [9] | level (log10) [10] | level (log10) (Perfluorononanoic acid) | level (log10) (Perfluorodecanoic acid; 2200 nM) | level (log10) (Perfluorodecanoic acid; 6700 nM) | level (log10) (Perfluorodecanoic acid; 20000 nM)
1 | CASM3C:M-CSF | 0.029 ± 0.035 | -0.0245 ± 0.042 | 0.025 ± 0.031 | 0.0265 ± 0.013 | 0.0085 ± 0.064 | 0.0045 ± 0.036 | 0.03 ± 0.034 | -0.0095 ± 0.021 | -0.025 ± 0.028 | 0.034 | -0.011 ± 0.0042 | 0.016 ± 0.042 | 0.0195 ± 0.07 | -0.0055 ± 0.04 | 0.015 ± 0.03 | -0.0065 ± 0.019 | -0.058 ± 0.0014 | 0.0315 ± 0.0064 | 0.0145 ± 0.0078 | 0.0345 ± 0.019
2 | LPS:sTNF-alpha | 0.082 ± 0.062 | -0.0185 ± 0.049 | -0.023 ± 0.027 | -0.008 ± 0.0085 | 0.0055 ± 0.0035 | 0.0205 ± 0.015 | 0.0425 ± 0.00071 | -0.0145 ± 0.071 | -0.095 ± 0.17 | -0.08 | -0.0155 ± 0.049 | -0.0725 ± 0.13 | 0.0635 ± 0.029 | 0.0515 ± 0.013 | -0.0095 ± 0.049 | 0.006 ± 0.017 | 0.013 ± 0.048 | -0.0255 ± 0.029 | -0.0245 ± 0.011 | -0.02 ± 0.017
3 | lMphg:IL-1alpha | 0.02 ± 0.03 | 0.001 ± 0.023 | 0.023 ± 0.031 | 0.0005 ± 0.016 | 0.018 ± 0.024 | 0.032 ± 0.044 | -0.042 ± 0.017 | -0.011 ± 0.024 | -0.004 ± 0.044 | 0.027 | -0.015 | 0.028 ± 0.045 | -0.005 ± 0.065 | -0.008 ± 0.083 | 0.0185 ± 0.016 | -0.0085 ± 0.035 | -0.0765 ± 0.053 | 0.004 ± 0.027 | 0.0085 ± 0.0078 | 0.013 ± 0.02
4 | HDF3CGF:CXCL9/MIG | 0.003 ± 0.017 | -0.0185 ± 0.05 | -0.011 ± 0.0085 | -0.0165 ± 0.033 | -0.0255 ± 0.019 | -0.006 ± 0.013 | 0.0195 ± 0.005 | 0.0055 ± 0.023 | -0.003 ± 0.018 | 0.018 | 0.0035 ± 0.00071 | 0.011 ± 0.011 | -0.0055 ± 0.0078 | -0.0165 ± 0.0078 | -0.0005 ± 0.011 | -0.014 ± 0.061 | 0.0015 ± 0.0064 | -0.023 ± 0.042 | -0.069 ± 0.048 | -0.27 ± 0.061
5 | KF3CT:uPA | -0.025 ± 0.041 | -0.0075 ± 0.0078 | 0.019 ± 0.0028 | 0.0065 ± 0.032 | -0.0105 ± 0.0078 | -0.0005 ± 0.016 | -0.005 ± 0.02 | 0.0015 ± 0.0021 | 0.0165 ± 0.0035 | 0.01 | -0.029 ± 0.0057 | 0.0055 ± 0.022 | -0.0005 ± 0.0021 | -0.005 | 0.018 ± 0.0085 | -0.0165 ± 0.018 | 0.002 ± 0.048 | -0.0085 ± 0.005 | -0.0095 ± 0.013 | 0 ± 0.023
6 | HDF3CGF:Collagen III | -0.0585 ± 0.066 | -0.019 ± 0.081 | 0.0305 ± 0.053 | 0.0485 ± 0.042 | -0.0295 ± 0.11 | 0.0185 ± 0.033 | -0.008 | -0.047 ± 0.018 | -0.196 ± 0.045 | -0.172 | -0.0135 ± 0.036 | -0.032 ± 0.0042 | -0.0015 ± 0.021 | -0.0195 ± 0.04 | 0.009 ± 0.058 | -0.036 ± 0.078 | -0.0695 ± 0.04 | 0.102 ± 0.016 | -0.08 ± 0.058 | -0.0755 ± 0.021
7 | 4H:CCL26/Eotaxin-3 | -0.0225 ± 0.021 | -0.0035 ± 0.013 | 0.0115 ± 0.04 | -0.001 ± 0.0085 | -0.0045 ± 0.029 | 0.0605 ± 0.018 | 0 ± 0.042 | -0.006 ± 0.0042 | -0.033 ± 0.0042 | -0.118 | 0.0005 ± 0.016 | 0.0185 ± 0.025 | -0.006 ± 0.064 | 0.005 ± 0.038 | 0.0035 ± 0.0092 | -0.023 ± 0.018 | 0.007 ± 0.013 | 0.0075 ± 0.018 | -0.0085 ± 0.011 | -0.0305 ± 0.011
8 | BE3C:Keratin 8/18 | -0.006 ± 0.058 | -0.013 ± 0.023 | -0.0385 ± 0.019 | -0.0215 ± 0.015 | 0.0115 ± 0.00071 | 0.005 ± 0.023 | -0.002 ± 0.031 | -0.0165 ± 0.0021 | -0.014 ± 0.0057 | 0.007 | -0.0415 ± 0.069 | -0.037 ± 0.014 | -0.0245 ± 0.023 | -0.022 ± 0.018 | -0.017 ± 0.044 | 0.0035 ± 0.05 | -0.0425 ± 0.023 | -0.0095 ± 0.0064 | 0.0035 ± 0.029 | -0.337 ± 0.0035
9 | MyoF:TIMP-1 | -0.0185 ± 0.023 | -0.0145 ± 0.067 | -0.0325 ± 0.0092 | 0.002 ± 0.0042 | 0.004 ± 0.021 | -0.0045 ± 0.0021 | 0.012 ± 0.0028 | 0.0185 ± 0.011 | 0.041 | 0.123 | 0.004 ± 0.095 | 0.0255 ± 0.064 | -0.043 ± 0.04 | -0.0365 ± 0.029 | -0.019 ± 0.034 | -0.0005 ± 0.021 | 0.0025 ± 0.069 | -0.0225 ± 0.0064 | -0.0345 ± 0.035 | -0.059 ± 0.038
10 | lMphg:SRB | -0.001 ± 0.0057 | -0.006 ± 0.0014 | -0.0025 ± 0.005 | -0.009 ± 0.0014 | -0.0105 ± 0.015 | 0.0055 ± 0.016 | 0.0075 ± 0.0021 | -0.006 ± 0.016 | 0.004 ± 0.016 | 0.001 | 0.003 ± 0.0028 | -0.002 ± 0.0057 | -0.001 ± 0.0057 | -0.006 ± 0.0028 | -0.0165 ± 0.0021 | -0.001 ± 0.017 | 0.0045 ± 0.005 | -0.003 ± 0.016 | 0.009 ± 0.0085 | 0.004 ± 0.0057
11 | lMphg:sIL-10 | -0.024 ± 0.072 | -0.0885 ± 0.091 | 0.0165 ± 0.005 | -0.0725 ± 0.067 | -0.061 ± 0.052 | 0.0195 ± 0.0035 | -0.034 ± 0.013 | -0.051 ± 0.018 | -0.118 ± 0.0057 | -0.121 | -0.004 ± 0.023 | -0.0115 ± 0.011 | 0.037 ± 0.057 | 0.009 ± 0.021 | 0.063 ± 0.0085 | -0.041 ± 0.028 | 0.0005 ± 0.039 | -0.007 ± 0.059 | -0.018 ± 0.055 | -0.036 ± 0.028
12 | HDF3CGF:TIMP-2 | -0.0225 ± 0.15 | -0.0395 ± 0.064 | -0.069 ± 0.035 | 0.005 ± 0.0085 | -0.01 ± 0.081 | -0.0215 ± 0.025 | -0.008 ± 0.011 | -0.008 ± 0.027 | -0.012 ± 0.031 | -0.018 | -0.038 ± 0.016 | -0.0055 ± 0.035 | -0.029 ± 0.13 | -0.023 ± 0.096 | -0.019 ± 0.013 | -0.047 ± 0.05 | -0.041 ± 0.095 | -0.0055 ± 0.012 | -0.006 ± 0.028 | -0.349 ± 0.17

Record cards (already shown). Values in the order: level (log10) [1] | level (log10) [2] | level (log10) [3] | level (log10) [4] | level (log10) [5] | level (log10) (Perfluorooctanoic acid) | level (log10) (Perfluorooctanamidine; 2200 nM) | level (log10) (Perfluorooctanamidine; 6700 nM) | level (log10) (Perfluorooctanamidine; 20000 nM) | level (log10) (Perfluorooctanamidine; 60000 nM) | level (log10) [6] | level (log10) [7] | level (log10) ([8]; 740 nM) | level (log10) ([8]; 2200 nM) | level (log10) [9] | level (log10) [10] | level (log10) (Perfluorononanoic acid) | level (log10) (Perfluorodecanoic acid; 2200 nM) | level (log10) (Perfluorodecanoic acid; 6700 nM) | level (log10) (Perfluorodecanoic acid; 20000 nM)
MyoF:TIMP-1 is entered as -0.0185 ± 0.023 | -0.0145 ± 0.067 | -0.0325 ± 0.0092 | 0.002 ± 0.0042 | 0.004 ± 0.021 | -0.0045 ± 0.0021 | 0.012 ± 0.0028 | 0.0185 ± 0.011 | 0.041 | 0.123 | 0.004 ± 0.095 | 0.0255 ± 0.064 | -0.043 ± 0.04 | -0.0365 ± 0.029 | -0.019 ± 0.034 | -0.0005 ± 0.021 | 0.0025 ± 0.069 | -0.0225 ± 0.0064 | -0.0345 ± 0.035 | -0.059 ± 0.038
lMphg:sIL-10 is entered as -0.024 ± 0.072 | -0.0885 ± 0.091 | 0.0165 ± 0.005 | -0.0725 ± 0.067 | -0.061 ± 0.052 | 0.0195 ± 0.0035 | -0.034 ± 0.013 | -0.051 ± 0.018 | -0.118 ± 0.0057 | -0.121 | -0.004 ± 0.023 | -0.0115 ± 0.011 | 0.037 ± 0.057 | 0.009 ± 0.021 | 0.063 ± 0.0085 | -0.041 ± 0.028 | 0.0005 ± 0.039 | -0.007 ± 0.059 | -0.018 ± 0.055 | -0.036 ± 0.028
